Assay results as given in patent US20170158755A1.

Target: LAMA4
Assay: ForteBio biolayer interferometry; antibody constant at 100 nM, LAMA4 at 3.125-200 nM

Binder	binding
mouse monoclonal antibody 19C12 (antibody, V domains shown) VH: QVQLQQSGAELVKPGASVKISCKASGYAFSTYWMNWVKQRPGEGLEWIGQIYPGDGDTNYNGKFKGKATLTADKSSSTAYMQLSSLTSEDSAVYFCARSDGYYDYWGQGTTLTVSS VL: NIVLTQSPASLAVSLGQRATISCRASESVDSYGTSFMHWYQQKPGQPPKLLICLASSLESGVPARFSGSGSRTDFTLTIDPVEADDAATYYCQQNNEDPPTFGAGTKLELKR	binds
mouse monoclonal antibody 1C1 (antibody, V domains shown) VH: QVQLQQSGAELARPGASVKLSCKASGYTFTNYGISWVKQRTGQGLEWIGAIYPRSGNTYYNEKFKGKATLTADKSSSTAYMELRSLTSEDSAVYFCARERDYGSSYALDYWGQGTSVTVSS VL: DIVMTQSQKFMSTSVGDRVSVTCKASHNVGTNVAWYQQKPGQSPKPLIYSASYRYSGVPDRFTGSGSGTDFTLTISNVQSEDLADYFCQQFNNYPYTFGGGTKLEIKR	binds

No constants are given. Whether binding was seen depends on the method and setting. Binding can be weak; no strength is given.
